Paper PMC7898466
Results are given in words; binding and its absence hold for the method and conditions named. For part of these data: Binding seen in cells or lysates may run through a third protein. Some entries that bind do so weakly or less than the wild type. For part of these data: Where a sequence is shown, tags or fusion partners need not be part of it. One block for each molecule: values may come before it.

Sequences of proteins named here, by UniProt entry; tags and fusion partners are left off.
UniProt Q9UI95: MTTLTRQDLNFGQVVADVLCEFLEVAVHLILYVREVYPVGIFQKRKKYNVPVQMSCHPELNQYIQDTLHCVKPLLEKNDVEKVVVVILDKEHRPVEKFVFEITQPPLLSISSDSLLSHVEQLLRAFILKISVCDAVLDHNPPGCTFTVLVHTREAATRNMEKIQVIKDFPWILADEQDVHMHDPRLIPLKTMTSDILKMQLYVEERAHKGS

How the values were obtained:
[1] = target: T1, Flag-Polλ (3xFlag human Polλ, full-length ORF) (human) (UniProt Q9UGP5); assay: co-IP; chromatin extracts of GM637 HFs stably expressing Flag-Polλ, with or without UVC (30 J/m^2, 4 h); extracts treated with 1% formalin; FLAG agarose beads overnight at 4°C in IP buffer (150 mM NaCl, Tris-HCl pH 7.5, 1 mM EDTA, 0.05% NP40, 10% glycerol); Western blot with PCNA, Rev7 and Flag antibodies
T1 sequence: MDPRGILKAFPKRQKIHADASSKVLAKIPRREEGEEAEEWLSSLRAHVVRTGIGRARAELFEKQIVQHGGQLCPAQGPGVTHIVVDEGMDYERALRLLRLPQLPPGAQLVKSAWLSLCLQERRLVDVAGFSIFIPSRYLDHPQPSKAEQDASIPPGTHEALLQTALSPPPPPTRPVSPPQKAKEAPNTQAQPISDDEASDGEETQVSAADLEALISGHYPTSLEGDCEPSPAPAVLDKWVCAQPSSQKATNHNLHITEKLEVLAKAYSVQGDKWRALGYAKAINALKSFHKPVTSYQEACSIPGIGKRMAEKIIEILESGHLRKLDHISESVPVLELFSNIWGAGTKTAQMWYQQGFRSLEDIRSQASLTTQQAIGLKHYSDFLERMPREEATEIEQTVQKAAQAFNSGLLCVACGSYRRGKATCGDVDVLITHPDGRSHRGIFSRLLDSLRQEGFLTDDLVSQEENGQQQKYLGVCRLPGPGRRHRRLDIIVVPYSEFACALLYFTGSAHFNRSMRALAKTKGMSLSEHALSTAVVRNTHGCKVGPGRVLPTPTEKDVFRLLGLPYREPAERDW

GST-Rev7 = GST-Rev7 (UniProt Q9UI95); assay: pull-down; ~2 μg GST-Rev7 or GST bound to 20 μl glutathione sepharose beads, incubated with an equal amount of Polλ or Polλ-NTD in 50 μl buffer I (50 mM Tris-HCl pH 7.5, 150 mM NaCl, 5 mM DTT, 0.01% NP-40, 10% glycerol); 25°C 15 min, then 4°C overnight; three washes; elution in SDS loading buffer; Coomassie staining; both purified

- binding [1]: binds
Molecule: Rev7 (endogenous) (from UniProt Q9UI95 1-211)

- binding (GST-Rev7): binds
B1: N-terminally truncated Polλ (residues 245–575) (domain or fragment, UniProt Q9UGP5 245-575)
chain: SSQKATNHNLHITEKLEVLAKAYSVQGDKWRALGYAKAINALKSFHKPVTSYQEACSIPGIGKRMAEKIIEILESGHLRKLDHISESVPVLELFSNIWGAGTKTAQMWYQQGFRSLEDIRSQASLTTQQAIGLKHYSDFLERMPREEATEIEQTVQKAAQAFNSGLLCVACGSYRRGKATCGDVDVLITHPDGRSHRGIFSRLLDSLRQEGFLTDDLVSQEENGQQQKYLGVCRLPGPGRRHRRLDIIVVPYSEFACALLYFTGSAHFNRSMRALAKTKGMSLSEHALSTAVVRNTHGCKVGPGRVLPTPTEKDVFRLLGLPYREPAERDW

- binding (GST-Rev7): binds
B2: DNA polymerase λ, full-length (residues 1–575) (enzyme, UniProt Q9UGP5 1-575)
chain: T1 sequence
